Pks13 thioesterase: 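Enzyme assay of the thioesterase domain of polyketide synthase 13; the read-out is not stated. Target: Polyketide synthase Pks13, Mycobacterium tuberculosis (UniProt I6X8D2). Concentration: 30 µM. Higher reads as stronger inhibition (inferred from which compounds were picked for retests). Of about 67,000 compounds tested this way, about 300 (0.46%) reached 50% or more in at least one test.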
TcHisRS: 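Enzyme assay of histidyl-tRNA synthetase; the read-out is not stated. Target: Histidine-tRNA ligase, Trypanosoma cruzi CL Brener (UniProt Q4DA54). Compounds at 30 µM. Direction is inferred from retests: higher values go with stronger inhibition. Size under these conditions: about 69,000 compounds, about 31 of them at 50% or above in at least one test.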

By UniProt entry, the sequences of proteins in these tests, tags left out. Residues count along the entry.
UniProt I6X8D2, whole entry: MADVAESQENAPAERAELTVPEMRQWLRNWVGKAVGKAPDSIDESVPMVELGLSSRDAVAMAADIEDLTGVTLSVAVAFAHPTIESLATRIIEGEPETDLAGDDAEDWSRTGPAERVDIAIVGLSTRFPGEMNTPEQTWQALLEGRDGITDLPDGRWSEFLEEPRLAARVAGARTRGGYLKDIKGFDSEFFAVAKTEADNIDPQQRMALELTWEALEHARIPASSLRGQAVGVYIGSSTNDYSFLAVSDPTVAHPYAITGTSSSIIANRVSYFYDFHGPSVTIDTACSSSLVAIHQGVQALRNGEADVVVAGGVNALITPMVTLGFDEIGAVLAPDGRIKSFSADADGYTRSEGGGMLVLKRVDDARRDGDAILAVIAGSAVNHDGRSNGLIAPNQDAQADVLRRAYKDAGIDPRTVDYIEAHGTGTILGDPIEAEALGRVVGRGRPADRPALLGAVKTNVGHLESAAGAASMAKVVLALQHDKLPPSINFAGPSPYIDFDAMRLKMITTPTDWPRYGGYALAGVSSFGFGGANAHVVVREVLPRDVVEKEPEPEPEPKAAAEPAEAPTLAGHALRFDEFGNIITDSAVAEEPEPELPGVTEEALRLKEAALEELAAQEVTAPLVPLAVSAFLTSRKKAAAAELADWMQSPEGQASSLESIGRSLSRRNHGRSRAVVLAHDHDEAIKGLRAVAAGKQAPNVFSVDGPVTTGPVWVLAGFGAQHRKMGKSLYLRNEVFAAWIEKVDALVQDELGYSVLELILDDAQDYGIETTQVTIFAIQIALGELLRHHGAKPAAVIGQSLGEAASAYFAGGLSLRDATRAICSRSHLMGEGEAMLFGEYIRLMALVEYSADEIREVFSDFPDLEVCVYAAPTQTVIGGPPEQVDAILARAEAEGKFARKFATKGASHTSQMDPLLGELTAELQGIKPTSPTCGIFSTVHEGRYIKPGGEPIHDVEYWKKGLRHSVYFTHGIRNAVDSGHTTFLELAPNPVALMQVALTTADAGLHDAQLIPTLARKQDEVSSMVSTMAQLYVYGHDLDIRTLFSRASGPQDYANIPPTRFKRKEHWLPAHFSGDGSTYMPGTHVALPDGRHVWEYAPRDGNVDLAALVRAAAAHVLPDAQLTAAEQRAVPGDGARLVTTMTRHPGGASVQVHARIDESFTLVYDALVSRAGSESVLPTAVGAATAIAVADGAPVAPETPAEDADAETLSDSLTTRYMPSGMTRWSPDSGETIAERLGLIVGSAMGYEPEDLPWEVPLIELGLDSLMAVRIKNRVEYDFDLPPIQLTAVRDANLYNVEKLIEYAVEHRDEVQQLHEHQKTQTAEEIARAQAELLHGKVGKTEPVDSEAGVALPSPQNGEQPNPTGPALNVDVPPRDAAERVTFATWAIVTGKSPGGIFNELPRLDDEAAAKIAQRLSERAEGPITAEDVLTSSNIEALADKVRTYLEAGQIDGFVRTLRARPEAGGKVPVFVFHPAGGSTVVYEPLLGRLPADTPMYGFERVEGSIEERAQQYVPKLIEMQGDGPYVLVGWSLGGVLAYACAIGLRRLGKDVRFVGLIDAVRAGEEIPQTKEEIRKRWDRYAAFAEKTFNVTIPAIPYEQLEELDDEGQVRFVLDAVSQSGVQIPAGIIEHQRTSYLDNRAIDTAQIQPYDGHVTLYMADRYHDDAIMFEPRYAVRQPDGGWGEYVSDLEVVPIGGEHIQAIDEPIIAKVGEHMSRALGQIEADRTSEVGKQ
UniProt Q4DA54, 1-478: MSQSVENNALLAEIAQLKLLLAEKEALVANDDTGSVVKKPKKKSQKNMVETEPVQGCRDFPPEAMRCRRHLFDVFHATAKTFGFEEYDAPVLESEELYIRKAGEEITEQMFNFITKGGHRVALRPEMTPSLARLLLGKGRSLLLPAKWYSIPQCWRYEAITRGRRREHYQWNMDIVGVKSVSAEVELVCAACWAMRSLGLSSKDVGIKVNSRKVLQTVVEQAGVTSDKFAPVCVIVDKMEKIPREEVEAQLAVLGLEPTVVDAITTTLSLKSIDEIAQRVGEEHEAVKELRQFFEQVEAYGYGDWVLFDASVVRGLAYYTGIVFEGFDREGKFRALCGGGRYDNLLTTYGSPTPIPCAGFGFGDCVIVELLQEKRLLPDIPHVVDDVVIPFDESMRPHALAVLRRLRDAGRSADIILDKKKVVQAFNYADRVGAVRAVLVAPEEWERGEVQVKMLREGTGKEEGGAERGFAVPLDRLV

The filed quantity is “Percent Effect” (%). The record does not define 0% and 100%; most values in the screen are far below 50% and negative numbers occur (in some assays of this library far below -100). The compounds are a random part of those screened. A dash means the value is not listed here; it may have been measured.

Compound,Pks13 thioesterase,TcHisRS
Cc1cc(C)n(CC(=O)N2CCCC2c2cc3cccnc3[nH]2)n1 (stereo not given),3.846%,3.876%
COc1ccc(CN2C[C@@H](O)[C@](O)(CNC(=O)c3ccccn3)C2)cc1,17.39%,-3.39%
Cc1csc(N2CCN(C(=O)c3c(C)oc(C)c3C)CC2)n1,-17.61%,0.565%
CN(Cc1cnc(N)nc1)C(=O)c1coc(COc2ccccc2)n1,-12.2%,7.2%
CNc1nc(CNC(=O)Nc2ccc(OC)cc2C)cs1,-17.46%,1.734%
Cc1ccc(CN2CCn3c(CNC(=O)c4cccn4C)cnc3C2)s1,-19.18%,36.27%
O=C1CO[C@H]2CN(Cc3ccc(F)c(F)c3)C[C@H]2N1,-22.9%,3.261%
Cc1cccn2c(=O)cc(CN3CCCC3Cn3cncn3)nc12 (stereo not given),-18.55%,4.651%
O=C(NCc1csc(-c2cnccn2)n1)c1cnn2c1CCCC2,-11.05%,6.466%
COc1ccc(C2CC(=O)Nc3c2nc2n3CCCC2)cc1O (stereo not given),-,5.785%
Cn1cnc2c1C(COCC1CCOCC1)CN(c1ncccn1)C2 (stereo not given),-5.149%,1.97%
O=C(c1ccc(F)cc1)N1C[C@@H]2COC[C@]2(COc2cccnc2)C1,-23.19%,8.466%
COC(=O)c1ccc2c(-c3ccnc(NCCO)n3)c[nH]c2c1,43.82%,4.52%
Cc1cnn(CC2CN(c3ncnc4c3CCC4)CCO2)c1 (stereo not given),-18.5%,-2.463%
Cc1nc(C)n(CC2CCCN2Cc2cscn2)n1 (stereo not given),-18.17%,3.396%
CN1N=C(C(=O)N2CCCC(CCc3cccc(F)c3)C2)CCC1=O (stereo not given),-0.751%,3.922%
Cn1cccc1-c1cc(C(=O)N2CCCC2c2nccs2)[nH]n1 (stereo not given),-4.867%,-3.061%
COc1ccc(C(=O)NC2CC2)c(OC)c1,1.232%,13.79%
CCS(=O)(=O)N1Cc2c(Cn3ccnc3)nn(C(C)C)c2C1,-15.78%,0.5348%
CN(C)C[C@@H]1CCC[C@@H]2CN(c3ncccn3)C[C@@H]21,-,0%
Cc1cccc(C)c1CCNC(=O)N1CCCC2(C1)OCCO2,-22.2%,-0.578%
Cc1ccc(C)c(CSc2nnc(C(N)C(C)C)o2)c1 (stereo not given),2.627%,4.95%
COc1ccc(CN(C)Cc2ccnc(C3CCCO3)n2)cc1 (stereo not given),1.41%,6.061%
CN(Cc1ccc(Cl)s1)C(=O)Cn1nc(-c2ccc(F)cc2)oc1=O,23.21%,-8.824%
CC(O)CN1CCC(CN(C)Cc2cccc(C#N)c2)CC1 (stereo not given),-27.02%,5.732%
O=C(CC1CCC2(CC1)CCN(Cc1ccncc1)CC2)N1CCCC1,-9.54%,6.542%
CSCC(=O)Nc1cccc(Oc2ccccn2)c1,-10.14%,6.667%
Cc1nn(C)c(N2CCOCC2)c1CNC1CCOc2ccccc21 (stereo not given),-29.47%,2.256%
CCc1nc2ccccc2c(=O)n1CC1(O)CCN(CC(=O)OC)CC1,3.345%,4.255%
CCCS(=O)(=O)N1CCC(Nc2c(F)cc(C#N)cc2F)CC1,9.839%,0%

For reference, 2 entries once more:

Compound,Pks13 thioesterase,TcHisRS
Cc1csc(N2CCN(C(=O)c3c(C)oc(C)c3C)CC2)n1,-17.61%,0.565%
CNc1nc(CNC(=O)Nc2ccc(OC)cc2C)cs1,-17.46%,1.734%

Data taken from ChEMBL document CHEMBL3988442, “University of Dundee, Small-Polar-MMV Screening Library” (2021).